Experiment [1] concerns the target T1, nucleolar and coiled-body phosphoprotein 1 (NOLC1), human (human (endogenous in HCT116)) (UniProt Q14978).
T1 sequence: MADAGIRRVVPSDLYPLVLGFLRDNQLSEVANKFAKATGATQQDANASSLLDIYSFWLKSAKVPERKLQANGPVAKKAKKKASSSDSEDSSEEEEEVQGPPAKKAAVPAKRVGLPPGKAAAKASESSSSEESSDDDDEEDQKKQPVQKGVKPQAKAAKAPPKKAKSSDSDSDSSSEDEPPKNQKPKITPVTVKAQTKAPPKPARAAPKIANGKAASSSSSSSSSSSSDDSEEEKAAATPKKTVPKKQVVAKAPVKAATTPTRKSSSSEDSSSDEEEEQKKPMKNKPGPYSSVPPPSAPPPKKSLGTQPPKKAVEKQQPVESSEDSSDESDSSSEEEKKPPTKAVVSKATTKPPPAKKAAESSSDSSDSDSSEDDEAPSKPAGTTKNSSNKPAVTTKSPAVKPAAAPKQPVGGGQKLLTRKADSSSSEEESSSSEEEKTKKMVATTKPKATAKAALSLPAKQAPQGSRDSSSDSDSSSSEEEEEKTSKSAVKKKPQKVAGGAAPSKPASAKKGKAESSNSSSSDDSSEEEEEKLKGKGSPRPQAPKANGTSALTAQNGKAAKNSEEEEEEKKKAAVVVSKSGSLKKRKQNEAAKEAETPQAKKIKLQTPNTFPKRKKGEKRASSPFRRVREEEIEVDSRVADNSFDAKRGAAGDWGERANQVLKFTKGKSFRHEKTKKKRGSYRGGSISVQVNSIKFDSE
Kind of experiment: co-IP.

Protein sequences, listed by entry. Tags and fused reporters are not part of them.
UniProt P49407: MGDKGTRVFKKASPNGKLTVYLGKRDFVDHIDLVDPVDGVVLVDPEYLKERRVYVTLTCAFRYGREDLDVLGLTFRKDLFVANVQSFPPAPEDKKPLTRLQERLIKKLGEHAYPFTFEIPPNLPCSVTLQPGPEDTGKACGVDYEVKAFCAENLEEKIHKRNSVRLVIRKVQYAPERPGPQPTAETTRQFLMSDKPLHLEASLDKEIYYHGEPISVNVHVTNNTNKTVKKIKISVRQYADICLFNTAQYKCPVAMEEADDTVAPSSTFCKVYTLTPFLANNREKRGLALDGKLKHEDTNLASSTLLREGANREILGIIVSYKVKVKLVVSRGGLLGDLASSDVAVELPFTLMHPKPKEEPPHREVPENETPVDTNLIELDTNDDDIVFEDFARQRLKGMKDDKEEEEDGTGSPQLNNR

Experiment [2] addresses T2, Fibrillarin, mouse (mouse (endogenous in colorectal cancer tissue)) (UniProt P35550).
T2 sequence: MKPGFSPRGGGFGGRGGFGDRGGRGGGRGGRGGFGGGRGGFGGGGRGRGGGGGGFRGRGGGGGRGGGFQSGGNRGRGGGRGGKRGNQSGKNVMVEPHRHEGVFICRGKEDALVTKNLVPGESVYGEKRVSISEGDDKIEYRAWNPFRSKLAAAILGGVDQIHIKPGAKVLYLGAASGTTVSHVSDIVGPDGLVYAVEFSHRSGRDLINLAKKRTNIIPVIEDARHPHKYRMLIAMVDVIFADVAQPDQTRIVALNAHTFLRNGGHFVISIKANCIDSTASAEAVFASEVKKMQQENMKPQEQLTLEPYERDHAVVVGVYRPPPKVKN
Kind of experiment: co-IP.

These are yes or no findings as the source states them, for the method shown. Binding seen in cells or lysates may run through a third protein. Some entries that bind do so weakly or less than the wild type.

Regarding “β-arrestin-1 (from UniProt P49407 1-418)”, the binding result in experiment [1] is reported as “binds”.

B1: nucleolar and coiled-body phosphoprotein 1 (NOLC1), mouse (protein, UniProt E9Q5C9 1-702)
chain: MADTGLRRVVPSDLYPLVLRFLRDSQLSEVASKFAKATGATQQDANASSLLDIYSFWLNRSTKAPKVKLQSNGPVTKKAKKETSSSDSSEDSSEDEDKKAQGLPTQKAAAQVKRASVPQHAGKAAAKASESSSSEESSEEEEEDKKKKPVQQKAAKPQAKAVRPPAKKAESSESDSDSDSDSSSEEETPQTQKPKAAVAAKAQTKAEAKPGTPAKAQPKVANGKAAASSSSSSSSDDSEEEKKAAAPPKKTVPKKQVVAKAPVKVAAAPTQKSSSSEDSSSEEEEGQRQPMKKKAGPYSSVPPPSVPLPKKSPGTQAPKKAAAQTQPADSSDDSSDDSDSSSEEEKKPPAKTVVSKTPAKAAPVKKKAESSSDSSDSDSSEDEAPAKPVSTTKSPKPAVTPKPSAAKAVTTPKQPAGSNQKPQSRKADSSSSEEESSSSEEEEASKKSATTPKAKVTAKAAPAKQAPQAAGDSSSDSDSSSSEEEEKTPKPPAKKKAAGGAVSTPAPGKKAEAKSSSSSSSSSSEDSSEEEKKKKPKATTPKIQASKANGTPASLNGKAAKESEEEEEEEETEEKKKAAGTKPGSGKKRKQNETADEATTPQAKKVKLETPNTFPKRKKGERRASSPFRRVREEEIEVDSRVADNSFDAKRGAAGDWGERANQVLKFTKGKSFRHEKTKKKRGSYRGGSISVQVNSVKFDSE
With B1, the binding entry in experiment [2] is reported as “binds”.

The record behind these values is paper doi:10.1101/2021.09.01.458501.
